Here are results for four molecules from PMC6107513.

Chains of the proteins cited; added tags and fusions are not shown. Lines headed by an entry give the natural chain unless they say otherwise; changes in a name come on top.
UniProt Q99496: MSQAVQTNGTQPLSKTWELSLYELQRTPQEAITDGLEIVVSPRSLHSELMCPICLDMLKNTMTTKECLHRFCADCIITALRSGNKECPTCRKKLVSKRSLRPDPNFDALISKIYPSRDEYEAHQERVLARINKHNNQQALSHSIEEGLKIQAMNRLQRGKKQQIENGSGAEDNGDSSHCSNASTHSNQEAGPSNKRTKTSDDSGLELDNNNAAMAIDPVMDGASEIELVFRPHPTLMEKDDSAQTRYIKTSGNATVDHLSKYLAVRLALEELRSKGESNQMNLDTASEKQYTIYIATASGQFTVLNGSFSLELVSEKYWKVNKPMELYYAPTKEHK

These are yes or no findings as the source states them, for the method shown. In cells and extracts the contact can be indirect. These calls come from enrichment with a bait or labelling near it, and not all partners need be listed.

For assay [1], the target named is RING1B (encoded by RNF2) (human (endogenous in T47D and MDA-MB-231)) (UniProt Q99496). Kind of assay: affinity purification with mass spectrometry; endogenous RING1B captured from T47D clarified cell extract (200 ul) on magnetic medium coupled to anti-RING1B antibody; 50 mM Tris pH 8.0, 300 mM NaCl, 0.2% NP-40; 1 h at 4 °C; mouse IgG control; label-free quantitative LC-MS/MS, three biological replicates.

The target is the same in assay [2]. Nature of the assay: affinity purification with mass spectrometry; endogenous RING1B captured from MDA-MB-231 clarified cell extract (400 ul) on magnetic medium coupled to anti-RING1B antibody; 50 mM Tris pH 8.0, 300 mM NaCl, 0.2% NP-40; 1 h at 4 °C; mouse IgG control; label-free quantitative LC-MS/MS, three biological replicates.

B1: PHC2 (protein, UniProt Q8IXK0 1-858)
chain: MENELPVPHTSSSACATSSTSGASSSSGCNNSSSGGSGRPTGPQISVYSGIPDRQTVQVIQQALHRQPSTAAQYLQQMYAAQQQHLMLQTAALQQQHLSSAQLQSLAAVQQASLVSNRQGSTSGSNVSAQAPAQSSSINLAASPAAAQLLNRAQSVNSAAASGIAQQAVLLGNTSSPALTASQAQMYLRAQMLIFTPTATVATVQPELGTGSPARPPTPAQVQNLTLRTQQTPAAAASGPTPTQPVLPSLALKPTPGGSQPLPTPAQSRNTAQASPAGAKPGIADSVMEPHKKGDGNSSVPGSMEGRAGLSRTVPAVAAHPLIAPAYAQLQPHQLLPQPSSKHLQPQFVIQQQPQPQQQQPPPQQSRPVLQAEPHPQLASVSPSVALQPSSEAHAMPLGPVTPALPLQCPTANLHKPGGSQQCHPPTPDTGPQNGHPEGVPHTPQRRFQHTSAVILQLQPASPPQQCVPDDWKEVAPGEKSVPETRSGPSPHQQAIVTAMPGGLPVPTSPNIQPSPAHETGQGIVHALTDLSSPGMTSGNGNSASSIAGTAPQNGENKPPQAIVKPQILTHVIEGFVIQEGAEPFPVGRSSLLVGNLKKKYAQGFLPEKLPQQDHTTTTDSEMEEPYLQESKEEGAPLKLKCELCGRVDFAYKFKRSKRFCSMACAKRYNVGCTKRVGLFHSDRSKLQKAGAATHNRRRASKASLPPLTKDTKKQPTGTVPLSVTAALQLTHSQEDSSRCSDNSSYEEPLSPISASSSTSRRRQGQRDLELPDMHMRDLVGMGHHFLPSEPTKWNVEDVYEFIRSLPGCQEIAEEFRAQEIDGQALLLLKEDHLMSAMNIKLGPALKIYARISMLKDS
Regarding B1, the binding entry in assay [1] and in assay [2] was “binds” throughout.

B2: PCGF2 (protein, UniProt P35227 1-344)
chain: MHRTTRIKITELNPHLMCALCGGYFIDATTIVECLHSFCKTCIVRYLETNKYCPMCDVQVHKTRPLLSIRSDKTLQDIVYKLVPGLFKDEMKRRRDFYAAYPLTEVPNGSNEDRGEVLEQEKGALSDDEIVSLSIEFYEGARDRDEKKGPLENGDGDKEKTGVRFLRCPAAMTVMHLAKFLRNKMDVPSKYKVEVLYEDEPLKEYYTLMDIAYIYPWRRNGPLPLKYRVQPACKRLTLATVPTPSEGTNTSGASECESVSDKAPSPATLPATSSSLPSPATPSHGSPSSHGPPATHPTSPTPPSTASGATTAANGGSLNCLQTPSSTSRGRKMTVNGAPVPPLT
With B2, the binding entry in assay [1] and in assay [2] was “binds” throughout.

B3: PHC3 (protein, UniProt Q8NDX5 1-983)
chain: MDTEPNPGTSSVSTTTSSTTTTTITTSSSRMQQPQISVYSGSDRHAVQVIQQALHRPPSSAAQYLQQMYAAQQQHLMLHTAALQQQHLSSSQLQSLAAVQASLSSGRPSTSPTGSVTQQSSMSQTSINLSTSPTPAQLISRSQASSSTSGSITQQTMLLGSTSPTLTASQAQMYLRAQMLIFTPATTVAAVQSDIPVVSSSSSSSCQSAATQVQNLTLRSQKLGVLSSSQNGPPKSTSQTQSLTICHNKTTVTSSKISQRDPSPESNKKGESPSLESRSTAVTRTSSIHQLIAPASYSPIQPHSLIKHQQIPLHSPPSKVSHHQLILQQQQQQIQPITLQNSTQDPPPSQHCIPLQNHGLPPAPSNAQSQHCSPIQSHPSPLTVSPNQSQSAQQSVVVSPPPPHSPSQSPTIIIHPQALIQPHPLVSSALQPGPNLQQSTANQVQATAQLNLPSHLPLPASPVVHIGPVQQSALVSPGQQIVSPSHQQYSSLQSSPIPIASPPQMSTSPPAQIPPLPLQSMQSLQVQPEILSQGQVLVQNALVSEEELPAAEALVQLPFQTLPPPQTVAVNLQVQPPAPVDPPVVYQVEDVCEEEMPEESDECVRMDRTPPPPTLSPAAITVGRGEDLTSEHPLLEQVELPAVASVSASVIKSPSDPSHVSVPPPPLLLPAATTRSNSTSMHSSIPSIENKPPQAIVKPQILTHVIEGFVIQEGLEPFPVSRSSLLIEQPVKKRPLLDNQVINSVCVQPELQNNTKHADNSSDTEMEDMIAEETLEEMDSELLKCEFCGKMGYANEFLRSKRFCTMSCAKRYNVSCSKKFALSRWNRKPDNQSLGHRGRRPSGPDGAAREHILRQLPITYPSAEEDLASHEDSVPSAMTTRLRRQSERERERELRDVRIRKMPENSDLLPVAQTEPSIWTVDDVWAFIHSLPGCQDIADEFRAQEIDGQALLLLKEDHLMSAMNIKLGPALKICARINSLKES
Consider B3, for which the binding entry in assay [1] is “binds”.

B4: CBX4 (protein, UniProt O00257 1-560)
chain: MELPAVGEHVFAVESIEKKRIRKGRVEYLVKWRGWSPKYNTWEPEENILDPRLLIAFQNRERQEQLMGYRKRGPKPKPLVVQVPTFARRSNVLTGLQDSSTDNRAKLDLGAQGKGQGHQYELNSKKHHQYQPHSKERAGKPPPPGKSGKYYYQLNSKKHHPYQPDPKMYDLQYQGGHKEAPSPTCPDLGAKSHPPDKWAQGAGAKGYLGAVKPLAGAAGAPGKGSEKGPPNGMMPAPKEAVTGNGIGGKMKIVKNKNKNGRIVIVMSKYMENGMQAVKIKSGEVAEGEARSPSHKKRAADERHPPADRTFKKAAGAEEKKVEAPPKRREEEVSGVSDPQPQDAGSRKLSPTKEAFGEQPLQLTTKPDLLAWDPARNTHPPSHHPHPHPHHHHHHHHHHHHAVGLNLSHVRKRCLSETHGEREPCKKRLTARSISTPTCLGGSPAAERPADLPPAAALPQPEVILLDSDLDEPIDLRCVKTRSEAGEPPSSLQVKPETPASAAVAVAAAAAPTTTAEKPPAEAQDEPAESLSEFKPFFGNIIITDVTANCLTVTFKEYVTV
Turning to B4, the binding entry in assay [1] is “binds”.
